Data reported in PMC6467405.
No constants are given. Whether binding was seen depends on the method and setting. Binding seen in cells or lysates may run through a third protein. Some results given as binding are weak or reduced against the parent protein; the word gives no strength.

The chains behind the UniProt entries cited, without tags or fusion partners. Residues count along the entry.
UniProt Q02413, residues 50-1049: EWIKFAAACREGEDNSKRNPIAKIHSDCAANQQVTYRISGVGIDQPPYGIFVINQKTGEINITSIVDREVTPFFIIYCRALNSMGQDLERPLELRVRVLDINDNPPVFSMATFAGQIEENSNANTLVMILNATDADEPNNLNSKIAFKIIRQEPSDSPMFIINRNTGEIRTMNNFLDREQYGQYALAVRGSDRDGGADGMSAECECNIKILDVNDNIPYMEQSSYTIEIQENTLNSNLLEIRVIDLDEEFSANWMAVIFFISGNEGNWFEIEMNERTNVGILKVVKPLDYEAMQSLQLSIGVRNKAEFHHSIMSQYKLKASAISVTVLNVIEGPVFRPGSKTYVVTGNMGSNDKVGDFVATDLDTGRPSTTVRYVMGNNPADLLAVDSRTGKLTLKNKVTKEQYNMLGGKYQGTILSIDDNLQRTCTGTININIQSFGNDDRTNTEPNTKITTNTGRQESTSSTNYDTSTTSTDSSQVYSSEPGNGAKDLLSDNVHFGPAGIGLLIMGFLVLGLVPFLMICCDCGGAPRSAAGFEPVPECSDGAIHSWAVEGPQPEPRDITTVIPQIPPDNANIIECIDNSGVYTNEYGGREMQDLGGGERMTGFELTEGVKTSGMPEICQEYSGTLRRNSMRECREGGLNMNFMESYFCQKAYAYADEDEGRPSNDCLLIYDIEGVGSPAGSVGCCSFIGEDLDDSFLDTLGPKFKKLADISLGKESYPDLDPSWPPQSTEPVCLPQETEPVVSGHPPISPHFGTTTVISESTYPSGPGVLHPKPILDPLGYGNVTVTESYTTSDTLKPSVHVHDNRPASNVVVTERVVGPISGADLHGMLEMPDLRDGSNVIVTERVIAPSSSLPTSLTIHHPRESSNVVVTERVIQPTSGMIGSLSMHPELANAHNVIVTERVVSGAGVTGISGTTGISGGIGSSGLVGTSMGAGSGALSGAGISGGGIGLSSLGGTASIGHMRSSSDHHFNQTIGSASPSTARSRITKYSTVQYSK

Biological target: desmoglein1 (Dsg1) (human (endogenous in Neoderm-E skin equivalent)) (UniProt Q02413)
Experiment: co-IP; lysate (RIPA buffer, EDTA-free protease inhibitors) of reconstructed human skin equivalent Neoderm-E, treated topically with 10% serine for 3 days or untreated; precipitated with anti-Dsg1 antibody and protein G sepharose, 4 °C; blot with anti-Dsc1; three repeats

B1: desmocollin1 (Dsc1) (protein, UniProt Q08554 135-894)
chain: RWAPIPASLMENSLGPFPQHVQQIQSDAAQNYTIFYSISGPGVDKEPFNLFYIEKDTGDIFCTRSIDREKYEQFALYGYATTADGYAPEYPLPLIIKIEDDNDNAPYFEHRVTIFTVPENCRSGTSVGKVTATDLDEPDTLHTRLKYKILQQIPDHPKHFSIHPDTGVITTTTPFLDREKCDTYQLIMEVRDMGGQPFGLFNTGTITISLEDENDNPPSFTETSYVTEVEENRIDVEILRMKVQDQDLPNTPHSKAVYKILQGNENGNFIISTDPNTNEGVLCVVKPLNYEVNRQVILQVGVINEAQFSKAASSQTPTMCTTTVTVKIIDSDEGPECHPPVKVIQSQDGFPAGQELLGYKALDPEISSGEGLRYQKLGDEDNWFEINQHTGDLRTLKVLDRESKFVKNNQYNISVVAVDAVGRSCTGTLVVHLDDYNDHAPQIDKEVTICQNNEDFAVLKPVDPDGPENGPPFQFFLDNSASKNWNIEEKDGKTAILRQRQNLDYNYYSVPIQIKDRHGLVATHMLTVRVCDCSTPSECRMKDKSTRDVRPNVILGRWAILAMVLGSVLLLCILFTCFCVTAKRTVKKCFPEDIAQQNLIVSNTEGPGEEVTEANIRLPMQTSNICDTSMSVGTVGGQGIKTQQSFEMVKGGYTLDSNKGGGHQTLESVKGVGQGDTGRYAYTDWQSFTQPRLGEKVYLCGQDEEHKHCEDYVCSYNYEGKGSLAGSVGCCSDRQEEEGLEFLDHLEPKFRTLAKTCIKK
**Q.** B1 was tested. Which binding did it give?
**A.** Its binding is “binds”.
